The target of this data set is T1, RH3 (Arabidopsis thaliana) (UniProt Q8L7S8).
T1 sequence (looked up): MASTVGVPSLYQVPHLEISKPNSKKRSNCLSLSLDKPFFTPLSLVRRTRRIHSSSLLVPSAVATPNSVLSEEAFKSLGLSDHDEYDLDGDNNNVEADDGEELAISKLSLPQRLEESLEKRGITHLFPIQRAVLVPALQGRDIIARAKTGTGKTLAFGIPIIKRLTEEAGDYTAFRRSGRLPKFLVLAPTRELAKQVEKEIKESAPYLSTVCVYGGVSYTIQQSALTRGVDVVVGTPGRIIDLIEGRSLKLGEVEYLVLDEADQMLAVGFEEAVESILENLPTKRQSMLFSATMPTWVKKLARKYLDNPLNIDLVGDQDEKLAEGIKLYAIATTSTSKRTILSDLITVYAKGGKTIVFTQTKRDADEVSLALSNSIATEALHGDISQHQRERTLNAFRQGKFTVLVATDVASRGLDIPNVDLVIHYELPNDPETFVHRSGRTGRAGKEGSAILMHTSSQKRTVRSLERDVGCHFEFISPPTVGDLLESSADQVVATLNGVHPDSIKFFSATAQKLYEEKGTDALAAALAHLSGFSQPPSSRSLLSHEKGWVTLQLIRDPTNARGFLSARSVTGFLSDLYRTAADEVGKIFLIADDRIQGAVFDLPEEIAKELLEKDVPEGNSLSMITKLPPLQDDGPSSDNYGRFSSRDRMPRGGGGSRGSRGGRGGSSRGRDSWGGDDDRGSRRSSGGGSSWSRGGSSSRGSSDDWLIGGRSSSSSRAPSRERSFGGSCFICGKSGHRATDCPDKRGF
Put plainly: MST. The settings on record: EC50 only in figure; MST: 20 nM FAM-RNA; recombinant protein; residues 1-748; protein details: N-terminal 6xHis-SUMO (retained); label: 5'-FAM.

The source of these data is PMC9293640, “Insights into the structural dynamics and helicase-catalyzed unfolding of plant RNA G-quadruplexes”.

The exact form of at least one protein or probe is not confirmed. At least one verdict was read from the data and is not stated in words by the source. Where a protein sequence is shown, tags need not be part of it.

“UUUUUUUUUUUUUUUGGGAGGGAAGGGGAAGGGG [SG4 (5' tail rG4)]”: the binding result is listed as “binds”.
